Laboratory results published in PubChem BioAssay AID493014 (National Center for Advancing Translational Sciences (NCATS), 2011).
Among all 340,000 compounds or so, about 170 (0.05%) were called active. The shares of active, inactive and inconclusive entries below differ from those in the screen. Calls follow the shape of the dose curve; as a rule, active = well fitted inhibition curve with a large enough effect in the signal ratio, with a control signal flat (not every such curve was filed as active); inconclusive = small, poorly fitted or top-dose-only effect, or effect the other way, or a change in a side signal; inactive = flat fitted curve, though single readings scatter; the % refers to the signal ratio. Potencies of inconclusive entries are doubtful fits and often do not repeat.

test: qHTS Assay to Find Inhibitors of Chronic Active B-Cell Receptor Signaling; details: ABC-DLBCL IkBa-CBG/CBR reporter, luminescence ratio (green luciferase fused to IkBa over red control in TMD8 lymphoma cells), 4 h; activity change, negative = inhibition: at 46.1 µM (top of the series);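 as to activity change, negative = inhibition: plate controls were basal doxycycline-induced cells for no effect and cells given 10 µM MG132 for full effect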
In short: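 Doxycycline induced both beetle luciferases in TMD8 lymphoma cells; IKK-driven degradation limits the IkappaBalpha-fused green signal, while red luminescence normalises for cell number and nonspecific effects. Compounds tested up to 46 uM, 4 hrs.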
Potency is read from the fitted curve at half-maximal effect.

Row | SMILES | Potency | activity change, negative = inhibition
1 | CC(NC(=O)c1ccccc1NC(=O)c1ccco1)C(=O)O (stereo not given) | inconclusive: 0.651 µM [rising, partial curve, poor fit] | –
2 | CNC(=O)CC1C(=O)N(c2ccc(F)cc2)C(=S)N1NC(=O)c1ccc(Cl)cc1 (stereo not given) | inconclusive: 28.2 µM [falling, single point] | –
3 | O=C(NCCc1ccccc1)C1CCN(S(=O)(=O)c2ccc(Br)s2)CC1 | – | inconclusive: 0.154%
4 | C[C@@H]1CCC(=O)N(CC[C@H](N=[N+]=[N-])c2ccccc2)CC1 | – | inconclusive: 18.5%
5 | COc1cc(N/C(N)=N/c2nc(C)cc(C)n2)c(OC)cc1Cl | – | inactive: 2.38%
6 | CCOc1ccccc1NC(=O)C1CCCN(S(=O)(=O)c2ccccc2)C1 (stereo not given) | – | inconclusive: -4.22%
7 | COc1ccc(S(=O)(=O)N(Cc2nc3ccccc3c(=O)[nH]2)C2CCCC2)cc1 | – | inconclusive: -14.4%
8 | COc1cc2cc(C(=O)NCCc3ccccc3)[nH]c2cc1OC | – | inconclusive: 8.69%
9 | CCOC(=O)c1ccccc1NC(=O)c1c(F)c(F)c(F)c(F)c1F | – | inconclusive: -1.14%
10 | Cc1ccnc(SCC(=O)c2ccc(Br)cc2)c1C#N | – | inconclusive: -18%
11 | O=C(/C=C/c1c(F)cccc1Cl)c1ccc(F)cc1 | – | inconclusive: -26.6%
12 | CN(Cc1ccccc1)c1nc2c(c(=O)[nH]c(=O)n2C)n1CCOc1ccccc1 | inconclusive: 22.4 µM [falling, single point] | –
13 | CC(C)OC(=O)CC(=O)c1sc2nc3c(cc2c1N)CN(C)CC3 | – | inactive: -1.49%
14 | O=C(c1ccc(Cn2cc(Br)cn2)o1)N1N=C(C(F)F)CC1(O)C(F)F (stereo not given) | – | inconclusive: 0.861%
15 | Cc1ccc(SC[C@H](c2ccccc2)N2CCN(CC(C)C)CCC2=O)cc1 | – | inactive: 5.43%
16 | Cc1cc(NC(=O)Cc2ccccc2)ccc1NC(=O)c1cccs1 | – | inconclusive: 14.2%
17 | COc1ccc(/C=C/C(=O)N2CCNC(=O)C2)c(OC)c1 | – | inconclusive: -25.9%
18 | Cc1cccc(-n2cnc3cc(C(=O)N4CCCCC4)ccc32)c1 | – | inconclusive: 1.05%
19 | CS(=O)(=O)N1CCN(C/C=C/c2ccccc2)CC1 | – | inactive: 22.5%
20 | CCOc1ccc(C(C)=O)cc1CSC(=N)N | – | inactive: 1.65%

Row | SMILES | Potency | activity change, negative = inhibition
21 | Nc1nc(CSC(=S)N2CCCCC2)nc(Nc2ccccc2)n1 | – | inconclusive: -4.14%
22 | Cc1cccc(NC(=O)CCN2C(=O)c3ccccc3S2(=O)=O)c1C | inconclusive: 0.0891 µM [falling, full curve, poor fit] | –
23 | COc1ccccc1CN(C(=O)CNC(=O)c1ccco1)C(C(=O)NCC1CCCO1)c1ccccc1 (stereo not given) | – | inconclusive: 9.39%
24 | CCCCCCSc1ccc(-c2nc3cc(C)ccn3c2NC2CCCCC2)cc1 | – | inactive: 0.7%
25 | COc1cccc(/C=N/n2cnc3c(cnn3-c3ccccc3)c2=O)c1 | – | inconclusive: 8.33%
26 | CCOC(=O)N1CCC(NC(=O)c2cccc3c2C(=O)N(c2ccc(OC)cc2)C3)CC1 | – | inactive: 5.38%
27 | CN(C)c1ccc(/C=C/c2nnnn2-c2ccccc2)cc1 | – | inconclusive: -29.3%
28 | Cc1ccc(C)c(N2CC(C(=O)Nc3cc(C)on3)CC2=O)c1 (stereo not given) | – | inactive: -8.84%
29 | NC(=O)CC(NC(=O)c1ccccc1)c1ccc(NCc2ccccn2)c([N+](=O)[O-])c1 (stereo not given) | inconclusive: 6.31 µM [falling, partial curve, poor fit] | –
30 | C=CCn1c(-c2ccc(OC)c(OC)c2)cs/c1=N\c1ccccn1 | – | inconclusive: 0.408%
31 | COc1cc(NC(=O)c2ccc(COc3ccccc3Br)o2)cc(OC)c1OC | inconclusive: 29.1 µM [falling, single point] | –
32 | O=C1N=c2ccccc2=C1c1sc(Nc2cccc(O)c2)nc1O | inconclusive: 35.5 µM [falling, single point] | –
33 | COc1ccccc1C(=O)N1CCN(C(=O)c2ccncc2)CC1 | – | inconclusive: 5.68%
34 | CC(C)[C@@H](CO)NC(=O)c1ccc2c3n(nc2c1)-c1ccccc1CO3 | – | inconclusive: 0.446%
35 | COc1ccc(NS(=O)(=O)c2cccc(N/C(=N\S(=O)(=O)c3ccccc3)c3ccc(F)cc3)c2)cc1 | inconclusive: 18.4 µM [falling, single point] | –
36 | COc1ccc(C(=O)CSc2nnc(COc3ccccc3)n2Cc2ccco2)cc1 | – | inconclusive: -0.0955%
37 | Cc1ccc(S(=O)(=O)N2[C@@H](c3ccc(F)cc3)C(C(=O)O)=CC[C@H]2c2cccc(C)c2)cc1 | – | inactive: 3.52%
38 | CCN(CC)CCn1c(NCc2ccc3c(c2)OCO3)nc2ccccc21 | inconclusive: 11.2 µM [falling, partial curve, poor fit] | –
39 | COc1ccc(-c2cc3nc(C)c(CCC(=O)NCc4ccco4)c(C)n3n2)c(OC)c1 | inconclusive: 16.4 µM [falling, partial curve] | –
40 | COc1ccc2ccc3c(c2c1)N=CC1(O3)N(C)c2ccccc2C1(C)C (stereo not given) | inconclusive: 10.3 µM [cytotoxic, partial curve] | –

In a second layout: 2 of the compounds above.
Row	SMILES	Potency	activity change, negative = inhibition
34	CC(C)[C@@H](CO)NC(=O)c1ccc2c3n(nc2c1)-c1ccccc1CO3	–	inconclusive: 0.446%
36	COc1ccc(C(=O)CSc2nnc(COc3ccccc3)n2Cc2ccco2)cc1	–	inconclusive: -0.0955%
